Among the data in PMC11494200 are binding values, retold here.

The assay deals with NUMB-FLAG (NUMB^WT-3FLAG, NUMB isoform 2; plasmid NUMB2-3FLAG-M107K) (human). As to the kind of experiment: co-IP; HEK293 lysate (1% TritonX-100, 10 mM HEPES pH 7.4, 142.5 mM KCl, 5 mM MgCl2, 1 mM EDTA, 10% glycerol); FLAG tag antibody and Protein G Sepharose beads overnight at 4 °C; immunoblot. (In general: Immunoblotting shows a protein as a band on a membrane.)

Results are given in words; binding and its absence hold for the method and conditions named. In cells and extracts the contact can be indirect. Binding calls can cover weak binding; strength is not graded here. Where a sequence is shown, tags or fusion partners need not be part of it.

B1: ABCG2-eGFP (plasmid ABCG2-eGFP-pcDNA3.1 + C-eGFP) (protein, UniProt Q9UNQ0 1-655)
chain: MSSSNVEVFIPVSQGNTNGFPATASNDLKAFTEGAVLSFHNICYRVKLKSGFLPCRKPVEKEILSNINGIMKPGLNAILGPTGGGKSSLLDVLAARKDPSGLSGDVLINGAPRPANFKCNSGYVVQDDVVMGTLTVRENLQFSAALRLATTMTNHEKNERINRVIQELGLDKVADSKVGTQFIRGVSGGERKRTSIGMELITDPSILFLDEPTTGLDSSTANAVLLLLKRMSKQGRTIIFSIHQPRYSIFKLFDSLTLLASGRLMFHGPAQEALGYFESAGYHCEAYNNPADFFLDIINGDSTAVALNREEDFKATEIIEPSKQDKPLIEKLAEIYVNSSFYKETKAELHQLSGGEKKKKITVFKEISYTTSFCHQLRWVSKRSFKNLLGNPQASIAQIIVTVVLGLVIGAIYFGLKNDSTGIQNRAGVLFFLTTNQCFSSVSAVELFVVEKKLFIHEYISGYYRVSSYFLGKLLSDLLPMRMLPSIIFTCIVYFMLGLKPKADAFFVMMFTLMMVAYSASSMALAIAAGQSVVSVATLLMTICFVFMMIFSGLLVNLTTIASWLSWLQYFSIPRYGFTALQHNEFLGQNFCPGLNATGNNPCNYATCTGEEYLVKQGIDLSPWGLWKNHVALACMIVIFLTIAYLKLLFLKKYS
With B1, the binding result was “binds”.
